Laboratory results from PubChem BioAssay AID1347423 (Functional Genomics Laboratory (NCATS/FGL), 2020).
The whole screen tested about 52,000 sequences, of which about 210 (0.4%) were called active.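 How the source made its calls: active means gene whose silencing raises cell survival under the drug, median off-target-corrected z-score across its silencing RNAs 2 or more; inactive means the rest.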 The list shows a part of the results.

Assay: Resistance to Poly (ADP-Ribose) Polymerase inhibitor: Gene Identification via Genome-wide siRNA Screen
Settings: mouse BRCA2 R2336H ES cells, olaparib, CellTiter-Glo viability; hits give high values
Summary of the method: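 Genome-wide siRNA screen (3 siRNAs/gene, 20 nM) in mouse ES cells carrying hypomorphic BRCA2 R2336H; olaparib 500 nM added 48 h post-transfection, CellTiter-Glo viability 72 h later. Normalized to plate-median negative control; MAD z-scores, gene median, seed-adjusted.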

Sequence | z-score
CCGUCUGGACAACAAACACTT against P2rx5 | inactive: 0.84
GGUUUUAAAGCACUUUGUATT against AI591476 | inactive: -0.948
GGACAUUGUCUAUUAUUGGTT against Gabrd | inactive: -0.882
GGUGCUUAUAUUGCUUCCCTT against Psmb5 | inactive: -2.93
GGAUUUUAAACCUUAAGGUTT against Ssty1 | inactive: 0.28
GGUCUUCUUGACAAUGUAATT against Bpnt1 | inactive: -0.851
GGCACAUUGCUGAAGCCCATT against Aldoa | inactive: -2.31
GCUGGGUUGCUGAUUUUUGTT against Arl5 | inactive: 0.0688
GCGAGUCUAGAUGUCUAGCTT against 5730407K14Rik | inactive: -0.0544
GGAAGAAUCCACUUUGAACTT against Chi3l4 | inactive: 0.032
CGUGGUGGUUGUUCGAGUATT against BC057371 | inactive: -0.541
GGCCUAAUGAAUUUGGUCATT against A630090P18 | inactive: 0.43
CAAGCAGUAAGGAUAUCCATT against Nalp-epsilon | inactive: 2.25
GGAACAUGUAUCCCAAAGCTT against 2310002J15Rik | inactive: -0.8
GGACUUGACCUCAAGGGAATT against Sox6 | inactive: 0.927
GGAUUUGAUGUGUUCAAUGTT against Nmt2 | inactive: -0.752
GGGUAUGGACCCUAUAUAATT against Osgep | inactive: -0.77
GACACCCUGUGACACCAAGTT against Sprr1b | inactive: -2.94
CGAACGUGAGCUACUGUGGTT against Cacnb4 | inactive: -0.243
CCAUCUGGCACUUCAACAUTT against Csnk1g1 | inactive: -0.87
GGAUGAAAGAGUUUCUGCATT against Spin | inactive: 0.0559
GCCUGUGUGAUGCAACAGGTT against Ifna5 | inactive: 0.813

Sequence | z-score
GGAUUUUCACCAACAGCCUTT against Gh | inactive: -1.17
ACCCUCAAUGAUUCAGGAATT against 4930415J05Rik | inactive: -0.0913
GCUCUUAUGUUUAAUAUGGTT against Mrps2 | inactive: -0.217
GGUUUUAGGAUCCUAGAAGTT against Ap1s1 | inactive: 0.679
GUCUUCCCUCAUCCUUUGATT against Cox8a | inactive: -1.2
GGACGAUAGGACCCAAAGGTT against Sh3tc1 | inactive: 0.266
CCUAUAGCAAUGGCAGCAGTT against Pkn1 | inactive: -0.103
GGACGUGAGCUCCAUCAUUTT against Mg29 | inactive: -1.57
GCCCUCAUUCAACACAUAATT against Clca3 | inactive: 0.21
GGGCACAUUAUGCAGAACUTT against Tnfrsf19l | inactive: 1.76
GCACAGUCCAUGAAUCAGATT against 4930432K21Rik | inactive: -0.903
CCCUAUUAAGAUGUCUACGTT against Rwdd2 | inactive: 0.686
GUUUCUCGAAGAGCAUCCUTT against Cyb5 | inactive: 0.711
CCGGCUAUGAAGAUGAGUATT against Cox6a1 | inactive: -0.089
GGGCUCUGUCAGAUAAUCUTT against LOC432988 | inactive: 0.314
GCGACCGUAUUGUCACUUGTT against Arpc1a | inactive: 0.0743
GCAGUACGCUGCAUUUAAATT against Mtrf1l | inactive: -0.215
GGGCCUUGAAUCUUUGUACTT against Galt | inactive: -0.358
GCUACUCAUGCUAGAUGACTT against Gba | inactive: 1.64
GGAGUUUCAGGUUUUACUUTT against 4921523A10Rik | inactive: 0.686
GUGGUUUGCUACCCAGCAUTT against Ear6 | inactive: -1.85
GGAUUUAUCCUGGUGACUUTT against 2310005N03Rik | inactive: 0.136

An excerpt of these results, with tabs.
Sequence	z-score
GCCUGUGUGAUGCAACAGGTT against Ifna5	inactive: 0.813
GGAUUUUCACCAACAGCCUTT against Gh	inactive: -1.17

A stretch from the list above:
Sequence | z-score
GGACGUGAGCUCCAUCAUUTT against Mg29 | inactive: -1.57
GCCCUCAUUCAACACAUAATT against Clca3 | inactive: 0.21
GGGCACAUUAUGCAGAACUTT against Tnfrsf19l | inactive: 1.76
GCACAGUCCAUGAAUCAGATT against 4930432K21Rik | inactive: -0.903

(continued)

Sequence | z-score
CGGAUGAAUUCCAGCUUCATT against Vdac1 | inactive: 1.76
GCUCCACUGGCAGUCACUUTT against 4833416I09Rik | inactive: -0.44
GAAAUCAGAAGAAAUGAAGTT against 1810007E14Rik | inactive: 1.05
GGGAUGCAGUAAAUGUGUATT against Acaa1 | inactive: 0.568
GGACAGAGGCGAUAGAAUCTT against Pou6f1 | inactive: 0.405
GGGACAAAAUGUGAAGACUTT against Pap | inactive: 0.691
GGCCACGGACAUUUGCAUGTT against Plekhf1 | inactive: 0.14
GCAAAUCCCAGUCUCACCATT against 2600017H02Rik | inactive: -2.73
GCCAAAAGUCUCAGACUGATT against AW049829 | inactive: -1.67
GGGUCAAGCAGUGUAAAGATT against Dnajb12 | inactive: -0.687
GGAAAGAAAGAGAAGAACATT against Bhc80 | inactive: -0.347
GGAGAGGAGAAAGUACCGUTT against A430096B05Rik | inactive: 0.521
CAUCAUUGAACAACUUGACTT against Olfr1466 | inactive: -0.208
GGAAGCUUCUGAGAGUAAATT against 4930503E14Rik | inactive: 0.287
GGGAGACCUUACUUUUUAATT against LOC436240 | inactive: -0.0832
GGUUACUGCUCUCAUGUACTT against Olfr247 | inactive: -0.854
GGCAAGAAUGUUGUCCACCTT against Dnaja4 | inactive: 1.49
CCGAGUGGUACUUCUGUAUTT against Ift172 | inactive: 0.0881
CCUGUAAAGUCUAAAUAACTT against Tatdn1 | inactive: -0.436
GGAAGAUAGUGCGAUCCAATT against Adcy5 | inactive: -1.06
GGUGGUGUGUUUAAUCCCATT against 9330133O14Rik | inactive: 0.31
GGAUAUUGAUUGCUUUGUUTT against Uox | inactive: -0.135
